Four substances from PMC10065074 can be followed below.

Protein sequences, listed by entry. Tags and fused reporters are not part of them. Lines headed by an entry give the natural chain unless they say otherwise; changes in a name come on top. Residues count along the entry.
UniProt Q9BTU6: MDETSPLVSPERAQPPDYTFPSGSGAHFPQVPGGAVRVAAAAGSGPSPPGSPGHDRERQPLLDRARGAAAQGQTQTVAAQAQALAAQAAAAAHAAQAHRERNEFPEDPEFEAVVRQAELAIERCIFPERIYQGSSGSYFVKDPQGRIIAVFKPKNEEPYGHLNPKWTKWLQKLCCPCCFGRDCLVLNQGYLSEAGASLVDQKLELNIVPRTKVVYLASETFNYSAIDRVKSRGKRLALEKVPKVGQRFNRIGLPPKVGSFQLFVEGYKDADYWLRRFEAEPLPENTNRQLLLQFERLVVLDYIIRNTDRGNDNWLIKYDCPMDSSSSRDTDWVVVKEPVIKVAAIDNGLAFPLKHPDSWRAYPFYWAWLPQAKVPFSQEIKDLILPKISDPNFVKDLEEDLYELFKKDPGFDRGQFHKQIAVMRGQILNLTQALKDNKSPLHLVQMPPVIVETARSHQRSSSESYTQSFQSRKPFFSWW
UniProt P35579: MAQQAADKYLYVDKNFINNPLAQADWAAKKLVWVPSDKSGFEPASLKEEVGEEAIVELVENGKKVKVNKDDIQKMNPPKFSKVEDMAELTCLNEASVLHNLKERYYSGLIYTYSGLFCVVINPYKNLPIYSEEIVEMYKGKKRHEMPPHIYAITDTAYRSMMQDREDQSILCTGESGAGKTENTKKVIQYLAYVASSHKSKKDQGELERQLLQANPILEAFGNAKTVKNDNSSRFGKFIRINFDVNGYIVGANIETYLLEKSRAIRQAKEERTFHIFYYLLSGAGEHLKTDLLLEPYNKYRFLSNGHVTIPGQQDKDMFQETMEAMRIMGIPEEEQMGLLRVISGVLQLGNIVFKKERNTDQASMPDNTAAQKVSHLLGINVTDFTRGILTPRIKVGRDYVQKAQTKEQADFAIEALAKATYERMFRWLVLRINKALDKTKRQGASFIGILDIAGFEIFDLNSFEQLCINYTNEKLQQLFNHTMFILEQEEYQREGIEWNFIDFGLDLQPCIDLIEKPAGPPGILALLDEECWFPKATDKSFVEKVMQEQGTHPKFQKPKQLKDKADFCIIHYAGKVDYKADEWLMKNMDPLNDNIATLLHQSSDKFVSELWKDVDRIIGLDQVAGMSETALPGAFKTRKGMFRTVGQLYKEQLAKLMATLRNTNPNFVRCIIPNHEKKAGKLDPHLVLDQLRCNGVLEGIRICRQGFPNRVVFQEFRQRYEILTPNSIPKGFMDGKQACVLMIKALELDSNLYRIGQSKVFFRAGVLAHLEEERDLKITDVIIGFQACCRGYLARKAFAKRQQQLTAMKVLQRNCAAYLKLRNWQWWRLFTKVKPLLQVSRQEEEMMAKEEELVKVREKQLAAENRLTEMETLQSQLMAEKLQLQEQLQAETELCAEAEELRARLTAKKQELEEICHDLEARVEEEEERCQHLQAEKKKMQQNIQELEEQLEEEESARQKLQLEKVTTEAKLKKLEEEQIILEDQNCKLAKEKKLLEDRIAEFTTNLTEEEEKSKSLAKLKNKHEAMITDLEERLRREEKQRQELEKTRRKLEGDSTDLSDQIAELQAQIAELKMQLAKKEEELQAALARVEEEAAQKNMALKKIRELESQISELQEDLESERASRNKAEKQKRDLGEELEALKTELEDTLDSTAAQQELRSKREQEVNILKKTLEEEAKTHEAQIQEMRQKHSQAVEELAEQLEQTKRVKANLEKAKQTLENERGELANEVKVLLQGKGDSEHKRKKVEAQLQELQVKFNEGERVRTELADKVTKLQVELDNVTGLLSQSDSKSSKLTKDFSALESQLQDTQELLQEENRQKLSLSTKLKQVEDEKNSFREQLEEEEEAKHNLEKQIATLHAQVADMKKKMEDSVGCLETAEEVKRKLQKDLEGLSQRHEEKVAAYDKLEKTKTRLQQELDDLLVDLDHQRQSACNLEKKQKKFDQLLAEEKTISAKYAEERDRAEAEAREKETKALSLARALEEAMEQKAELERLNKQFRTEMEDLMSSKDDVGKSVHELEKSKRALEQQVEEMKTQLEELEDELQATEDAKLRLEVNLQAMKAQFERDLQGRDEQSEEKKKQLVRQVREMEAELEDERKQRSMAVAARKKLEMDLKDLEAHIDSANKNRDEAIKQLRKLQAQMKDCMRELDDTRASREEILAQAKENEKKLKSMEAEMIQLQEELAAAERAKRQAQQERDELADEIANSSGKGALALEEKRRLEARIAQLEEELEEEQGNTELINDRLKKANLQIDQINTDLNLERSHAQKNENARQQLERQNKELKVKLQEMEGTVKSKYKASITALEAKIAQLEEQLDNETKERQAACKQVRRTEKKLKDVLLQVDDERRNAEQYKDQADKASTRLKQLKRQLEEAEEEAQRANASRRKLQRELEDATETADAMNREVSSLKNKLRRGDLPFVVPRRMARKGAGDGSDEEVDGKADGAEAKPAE
UniProt P16070, residues 21-742: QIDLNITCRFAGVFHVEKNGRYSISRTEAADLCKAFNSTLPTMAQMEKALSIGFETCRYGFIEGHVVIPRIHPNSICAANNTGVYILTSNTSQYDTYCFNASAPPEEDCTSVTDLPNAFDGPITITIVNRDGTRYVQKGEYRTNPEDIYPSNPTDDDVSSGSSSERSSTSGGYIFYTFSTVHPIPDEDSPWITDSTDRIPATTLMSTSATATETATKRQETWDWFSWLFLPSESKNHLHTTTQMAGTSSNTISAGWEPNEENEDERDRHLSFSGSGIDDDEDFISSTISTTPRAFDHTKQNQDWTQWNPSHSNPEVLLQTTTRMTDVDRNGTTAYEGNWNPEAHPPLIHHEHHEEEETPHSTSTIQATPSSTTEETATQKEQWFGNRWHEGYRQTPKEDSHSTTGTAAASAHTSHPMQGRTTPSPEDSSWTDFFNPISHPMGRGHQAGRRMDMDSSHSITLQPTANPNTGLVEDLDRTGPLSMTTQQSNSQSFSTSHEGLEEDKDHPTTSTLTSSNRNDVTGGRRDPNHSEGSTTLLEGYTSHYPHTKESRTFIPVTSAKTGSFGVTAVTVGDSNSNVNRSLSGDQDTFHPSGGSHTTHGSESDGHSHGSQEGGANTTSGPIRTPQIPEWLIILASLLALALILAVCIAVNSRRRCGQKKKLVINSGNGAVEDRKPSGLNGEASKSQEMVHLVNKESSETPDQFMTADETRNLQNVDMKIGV
UniProt P05556: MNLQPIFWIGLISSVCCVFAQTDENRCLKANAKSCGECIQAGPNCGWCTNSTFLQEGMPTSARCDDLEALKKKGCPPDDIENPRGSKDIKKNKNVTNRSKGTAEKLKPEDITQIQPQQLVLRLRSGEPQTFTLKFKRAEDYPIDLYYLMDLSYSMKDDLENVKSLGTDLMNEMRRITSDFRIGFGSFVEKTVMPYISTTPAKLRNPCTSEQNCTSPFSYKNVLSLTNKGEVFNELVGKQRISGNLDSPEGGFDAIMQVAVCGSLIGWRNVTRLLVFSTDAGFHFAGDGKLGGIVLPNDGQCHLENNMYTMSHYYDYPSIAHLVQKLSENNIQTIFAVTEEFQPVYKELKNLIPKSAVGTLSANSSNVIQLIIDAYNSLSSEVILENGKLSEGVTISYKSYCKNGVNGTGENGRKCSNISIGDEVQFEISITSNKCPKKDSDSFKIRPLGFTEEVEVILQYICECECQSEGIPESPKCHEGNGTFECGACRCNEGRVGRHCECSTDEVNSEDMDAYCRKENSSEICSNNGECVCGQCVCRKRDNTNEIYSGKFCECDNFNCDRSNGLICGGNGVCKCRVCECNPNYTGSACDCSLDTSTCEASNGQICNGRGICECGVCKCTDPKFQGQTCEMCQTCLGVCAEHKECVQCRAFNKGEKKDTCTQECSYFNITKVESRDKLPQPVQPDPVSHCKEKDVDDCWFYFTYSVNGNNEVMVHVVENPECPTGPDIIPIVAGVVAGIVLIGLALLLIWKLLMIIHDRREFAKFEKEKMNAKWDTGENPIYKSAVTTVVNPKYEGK
UniProt P30530, residues 26-894: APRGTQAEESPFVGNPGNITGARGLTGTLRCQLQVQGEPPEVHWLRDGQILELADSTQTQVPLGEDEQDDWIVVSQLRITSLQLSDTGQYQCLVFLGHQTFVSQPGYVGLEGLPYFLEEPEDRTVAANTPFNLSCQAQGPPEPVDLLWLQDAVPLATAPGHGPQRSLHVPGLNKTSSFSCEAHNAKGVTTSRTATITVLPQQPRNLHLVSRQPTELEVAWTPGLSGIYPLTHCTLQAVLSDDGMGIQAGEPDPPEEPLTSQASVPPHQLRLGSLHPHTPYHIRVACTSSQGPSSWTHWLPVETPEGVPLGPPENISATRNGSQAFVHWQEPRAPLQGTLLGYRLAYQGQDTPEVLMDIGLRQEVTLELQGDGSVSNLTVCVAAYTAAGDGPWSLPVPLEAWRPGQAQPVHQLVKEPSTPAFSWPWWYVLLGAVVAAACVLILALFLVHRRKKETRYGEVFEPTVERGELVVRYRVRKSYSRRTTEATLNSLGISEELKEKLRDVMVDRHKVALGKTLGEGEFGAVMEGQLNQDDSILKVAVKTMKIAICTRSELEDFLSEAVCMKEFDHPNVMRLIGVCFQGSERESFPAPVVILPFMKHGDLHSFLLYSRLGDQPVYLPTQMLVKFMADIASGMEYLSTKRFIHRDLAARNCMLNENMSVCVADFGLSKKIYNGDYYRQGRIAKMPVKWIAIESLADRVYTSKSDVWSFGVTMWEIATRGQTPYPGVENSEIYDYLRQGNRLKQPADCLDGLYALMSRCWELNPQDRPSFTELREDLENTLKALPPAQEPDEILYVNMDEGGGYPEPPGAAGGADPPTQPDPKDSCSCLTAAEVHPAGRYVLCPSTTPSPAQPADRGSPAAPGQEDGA

Results are given in words; binding and its absence hold for the method and conditions named. In cells and extracts the contact can be indirect. These calls come from enrichment with a bait or labelling near it, and not all partners need be listed.

Assay [1] has as its target PI4K2A/TurboID fusion construct (UniProt Q9BTU6). In words: proximity labelling; TurboID-PI4K2A transfected into H1299 cells, with or without 100 μM biotin for 1 hour; biotinylated proteins purified on streptavidin agarose beads; LC-MS.
Assay [2] has as its target hemagglutinin-tagged (HA-tagged) PI4K2A (human) (UniProt Q9BTU6). In words: affinity purification with mass spectrometry; HA-PI4K2A stably expressed in PI4K2A-deficient H1299 cells; lysates immunoprecipitated by HA-tag antibody, isolated on Protein G beads; LC-MS.
Assay [3] addresses PI4K2A/TurboID fusion construct (UniProt Q9BTU6). In words: proximity labelling; H1299 cells transfected with the PI4K2A/TurboID construct and treated with biotin; streptavidin bead-enriched samples; WB.

On to “myosin heavy chain 9 (from UniProt P35579 1-1960)”, for which the binding entry in assay [1] and in assay [2] was “binds” throughout.

Turning to “CD44 molecule (from UniProt P16070 21-742) (receptor)”, the binding result in assay [3] and in assay [1] was “binds” each time.

“integrin-β1 (from UniProt P05556 21-798) (receptor)”: the binding entry in assay [3] and in assay [1] was “binds” each time.

On to “AXL receptor tyrosine kinase (from UniProt P30530 26-894)”, for which, in assay [1], the binding entry is listed as “binds”.
